Measurements from publication PMC3579733.

Assays:
[1] = biological target: T1, Htr6 (Halobacterium salinarum R1 (DSM 671), endogenous) (UniProt B0R461); experiment: affinity purification with mass spectrometry; one-step and two-step bait fishing taken together (final data set; both methods applied to all baits); the place does not tell which of the two gave the result
T1 sequence: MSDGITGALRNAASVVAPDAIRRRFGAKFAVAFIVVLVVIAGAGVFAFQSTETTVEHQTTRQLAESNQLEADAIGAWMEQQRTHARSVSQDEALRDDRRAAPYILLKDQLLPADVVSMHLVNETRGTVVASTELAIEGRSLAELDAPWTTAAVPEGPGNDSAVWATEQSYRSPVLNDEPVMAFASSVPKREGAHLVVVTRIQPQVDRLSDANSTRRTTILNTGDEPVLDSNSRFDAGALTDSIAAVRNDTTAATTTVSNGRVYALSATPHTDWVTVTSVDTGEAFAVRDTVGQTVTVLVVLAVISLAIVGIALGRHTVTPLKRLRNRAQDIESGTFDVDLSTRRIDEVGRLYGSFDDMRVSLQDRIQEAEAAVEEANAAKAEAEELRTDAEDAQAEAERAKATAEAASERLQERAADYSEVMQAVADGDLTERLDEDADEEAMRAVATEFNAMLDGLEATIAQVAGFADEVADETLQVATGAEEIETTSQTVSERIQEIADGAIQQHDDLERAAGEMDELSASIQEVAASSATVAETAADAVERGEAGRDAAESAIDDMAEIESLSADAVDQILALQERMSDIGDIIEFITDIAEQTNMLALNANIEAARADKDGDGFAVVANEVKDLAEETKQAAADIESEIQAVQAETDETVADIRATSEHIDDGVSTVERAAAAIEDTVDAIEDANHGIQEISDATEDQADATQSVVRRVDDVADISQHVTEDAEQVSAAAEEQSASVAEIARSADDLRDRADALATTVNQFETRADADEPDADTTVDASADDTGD

[2] = biological target: T2, CheA (Halobacterium salinarum R1 (DSM 671)) (UniProt B0R4J9); experiment: affinity purification with mass spectrometry; one-step bait fishing: lysates of the bait-CBD strain (13C6-leucine) and of the bait-control strain without CBD (12C6-leucine) mixed, one cellulose column, CFE buffer (3 M KCl, 1 M NaCl, 400 mM NH4Cl, 40 mM MgCl2, 10 mM Tris/HCl pH 7.5), washes with 0.5% NP40, room temperature; SILAC, association score > 7 counts as interaction
T2 sequence: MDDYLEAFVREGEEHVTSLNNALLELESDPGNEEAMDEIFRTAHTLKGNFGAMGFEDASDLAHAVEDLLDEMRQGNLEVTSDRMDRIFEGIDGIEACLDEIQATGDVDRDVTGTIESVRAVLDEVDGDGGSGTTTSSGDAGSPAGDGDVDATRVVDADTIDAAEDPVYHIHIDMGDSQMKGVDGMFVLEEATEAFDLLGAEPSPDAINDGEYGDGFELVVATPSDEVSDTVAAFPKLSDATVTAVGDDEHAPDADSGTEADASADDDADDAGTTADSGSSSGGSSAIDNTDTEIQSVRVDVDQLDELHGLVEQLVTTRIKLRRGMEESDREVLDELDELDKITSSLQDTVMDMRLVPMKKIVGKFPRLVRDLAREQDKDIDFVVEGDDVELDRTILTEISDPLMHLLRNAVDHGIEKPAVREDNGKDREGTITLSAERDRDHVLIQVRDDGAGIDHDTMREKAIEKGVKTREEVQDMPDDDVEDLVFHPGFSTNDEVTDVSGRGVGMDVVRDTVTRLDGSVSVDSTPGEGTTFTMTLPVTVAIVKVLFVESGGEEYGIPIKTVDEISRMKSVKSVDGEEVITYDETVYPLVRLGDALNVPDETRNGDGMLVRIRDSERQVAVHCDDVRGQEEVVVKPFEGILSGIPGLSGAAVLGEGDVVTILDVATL

[3] = biological target: T2, CheA (Halobacterium salinarum R1 (DSM 671)); experiment: affinity purification with mass spectrometry; two-step bait fishing: bait-CBD bound to a cellulose column and stringently washed (CFE + 1% NP40 + 20% ethylene glycol), then incubated with lysate of wild type cells (12C6-leucine); plain CBD column with 13C6-leucine lysate as control; SILAC, association score > 7 counts as interaction; only the target purified
[4] = biological target: OE4643R (Halobacterium salinarum R1 (DSM 671)); experiment: affinity purification with mass spectrometry; one-step and two-step bait fishing taken together (final data set; both methods applied to all baits); the place does not tell which of the two gave the result
[5] = biological target: T3, CheY (Halobacterium salinarum R1 (DSM 671)) (UniProt B0R4K1); experiment: as above
T3 sequence: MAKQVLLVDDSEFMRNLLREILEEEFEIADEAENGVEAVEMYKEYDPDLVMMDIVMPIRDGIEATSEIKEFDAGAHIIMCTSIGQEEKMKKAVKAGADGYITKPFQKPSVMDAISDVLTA

[6] = biological target: T4, HtrII (Halobacterium salinarum R1 (DSM 671), endogenous) (UniProt B0R6B1); experiment: as above
T4 sequence: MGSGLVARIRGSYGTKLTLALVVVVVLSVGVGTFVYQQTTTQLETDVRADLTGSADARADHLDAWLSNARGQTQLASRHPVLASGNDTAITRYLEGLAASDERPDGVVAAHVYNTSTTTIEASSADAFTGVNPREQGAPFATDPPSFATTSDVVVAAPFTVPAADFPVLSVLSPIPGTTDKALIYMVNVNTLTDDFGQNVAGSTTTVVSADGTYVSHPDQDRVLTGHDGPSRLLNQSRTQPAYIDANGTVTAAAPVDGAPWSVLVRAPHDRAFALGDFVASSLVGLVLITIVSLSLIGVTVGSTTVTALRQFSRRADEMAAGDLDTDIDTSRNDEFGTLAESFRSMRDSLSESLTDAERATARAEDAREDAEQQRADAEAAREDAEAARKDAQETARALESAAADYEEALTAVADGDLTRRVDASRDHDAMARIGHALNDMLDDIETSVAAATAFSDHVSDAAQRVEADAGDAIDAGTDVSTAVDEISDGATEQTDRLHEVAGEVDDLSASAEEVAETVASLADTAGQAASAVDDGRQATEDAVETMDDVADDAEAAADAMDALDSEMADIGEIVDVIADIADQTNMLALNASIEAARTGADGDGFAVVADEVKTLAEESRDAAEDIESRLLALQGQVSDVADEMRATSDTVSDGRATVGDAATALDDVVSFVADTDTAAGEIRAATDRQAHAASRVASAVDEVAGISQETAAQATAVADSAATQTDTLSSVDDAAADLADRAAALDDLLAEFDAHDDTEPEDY

[7] = biological target: T5, BasT (Halobacterium salinarum R1 (DSM 671), endogenous) (UniProt B0R6I4); experiment: as above
T5 sequence: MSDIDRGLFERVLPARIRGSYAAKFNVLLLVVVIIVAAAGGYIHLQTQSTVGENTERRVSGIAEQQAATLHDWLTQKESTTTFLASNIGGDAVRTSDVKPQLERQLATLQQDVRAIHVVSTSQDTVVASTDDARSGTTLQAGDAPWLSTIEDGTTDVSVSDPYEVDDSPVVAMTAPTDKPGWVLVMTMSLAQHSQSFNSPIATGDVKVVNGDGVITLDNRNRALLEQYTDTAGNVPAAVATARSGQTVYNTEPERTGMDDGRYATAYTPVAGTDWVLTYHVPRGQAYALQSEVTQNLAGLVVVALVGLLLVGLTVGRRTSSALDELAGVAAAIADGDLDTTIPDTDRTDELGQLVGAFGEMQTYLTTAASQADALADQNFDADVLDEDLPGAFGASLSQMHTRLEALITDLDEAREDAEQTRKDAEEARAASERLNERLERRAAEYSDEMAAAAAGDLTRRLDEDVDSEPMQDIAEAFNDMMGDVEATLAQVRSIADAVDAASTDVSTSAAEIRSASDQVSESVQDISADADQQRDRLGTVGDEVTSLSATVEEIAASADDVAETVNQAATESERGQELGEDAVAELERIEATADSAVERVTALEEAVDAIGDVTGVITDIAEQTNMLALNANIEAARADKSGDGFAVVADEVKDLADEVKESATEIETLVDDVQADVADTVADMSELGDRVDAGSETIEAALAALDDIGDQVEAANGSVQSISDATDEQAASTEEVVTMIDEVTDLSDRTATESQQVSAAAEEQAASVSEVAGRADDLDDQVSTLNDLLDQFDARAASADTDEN

[8] = biological target: T6, CosT (Halobacterium salinarum R1 (DSM 671), endogenous) (UniProt B0R6A7); experiment: as above
T6 sequence: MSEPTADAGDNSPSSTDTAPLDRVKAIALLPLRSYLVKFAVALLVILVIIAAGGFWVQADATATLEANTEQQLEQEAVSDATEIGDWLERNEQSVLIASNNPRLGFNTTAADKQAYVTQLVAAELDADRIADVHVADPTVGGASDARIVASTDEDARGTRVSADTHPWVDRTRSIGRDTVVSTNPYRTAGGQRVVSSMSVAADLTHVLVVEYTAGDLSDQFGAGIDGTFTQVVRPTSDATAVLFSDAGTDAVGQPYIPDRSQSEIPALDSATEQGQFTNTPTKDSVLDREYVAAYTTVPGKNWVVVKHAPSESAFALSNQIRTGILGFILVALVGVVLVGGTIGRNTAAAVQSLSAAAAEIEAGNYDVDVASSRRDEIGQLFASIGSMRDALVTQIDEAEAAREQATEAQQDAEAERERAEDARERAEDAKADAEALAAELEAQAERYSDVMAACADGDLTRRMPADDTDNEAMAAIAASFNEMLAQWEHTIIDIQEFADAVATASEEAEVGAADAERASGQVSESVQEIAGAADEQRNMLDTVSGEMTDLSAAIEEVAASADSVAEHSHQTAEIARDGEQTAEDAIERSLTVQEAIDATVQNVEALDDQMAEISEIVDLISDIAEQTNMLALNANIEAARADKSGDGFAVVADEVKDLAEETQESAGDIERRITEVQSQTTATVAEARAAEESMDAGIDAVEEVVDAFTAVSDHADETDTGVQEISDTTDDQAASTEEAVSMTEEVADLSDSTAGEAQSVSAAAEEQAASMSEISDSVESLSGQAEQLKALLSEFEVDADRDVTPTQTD

OE2170R
binding [1]: binds

B1: CheW1 (protein, UniProt Q9HQW5 1-178)
chain: MNLEDADRVVEEAAHVVEFKLGDEVCAIDIAAVDSIVESKQVTRVPRAPDAVEGVMDLRGETTAIVDPREFLAIHGDHDSDNILVLDRADDKQKIGLRVAEVTEVSGYAEHQIDRGSRLDRIGTSAIESELVRGVIRKGATPPGEADAAEEDVALVLWLDIDKLIGSVSADETIDNQV
binding [2]: binds
binding [3]: binds
binding [4]: no binding
binding [5]: binds

B2: sensory rhodopsin II (receptor, UniProt P71411 1-237)
chain: MALTTWFWVGAVGMLAGTVLPIRDCIRHPSHRRYDLVLAGITGLAAIAYTTMGLGITATTVGDRTVYLARYIDWLVTTPLIVLYLAMLARPGHRTSAWLLAADVFVIAAGIAAALTTGVQRWLFFAVGAAGYAALLYGLLGTLPRALGDDPRVRSLFVTLRNITVVLWTLYPVVWLLSPAGIGILQTEMYTIVVVYLDFISKVAFVAFAVLGADAVSRLVAADAAAPATAEPTPDGD
binding [4]: no binding
binding [6]: binds

B3: BasB (protein, UniProt B0R6I5 32-413)
chain: QPVTVGSLLPLSGPGSLGALAADHQRAIDTAVEHANRGGGINGRDVVHVSKDTEADPSVAADRYATLAADESPLAIVGPVLSGVTTALTEQAAADAQLLVSPSTTAPAIATAGRSDGQKFVARTCPNDSQQAAVMAKIVDDDMYAAADTATILYVDNAFGAALADVLADRLGADLLASVPYQGGTDTPGGPVDDALAPDPDAVAFIGSPGSSSGVIDELVGREYGGEIALSSALASASSPPSWNGAYTATVNSASTVGTKRLRRALSDATPLQPYTENAYDAAALALLAASYSGDPTPRAVAGALQSVSGGVGHSITVGDFGRATDLIDAGRELNYNGATGNVDLTAALEPVTGYLIQQLTDAGIETRELLKSGYFTDGGDA
binding [7]: binds
binding [4]: no binding

B4: CosB (protein, UniProt B0R6A8 30-334)
chain: GCTTITGGGDTTSTGGGDSGSSSIVVGSKGYGEQVTLGYVAYELLANTTNATLVDETGFGGNAAISEAYRTGNVHAYYDYMGSLWSSHPPKHDSADFDTPDAQYDALKSEMESEHPIRILDRADWQNTWAVFVAERAVEGTGIQSISDLAAHVNSRNYDIRPAFGDGFRSRSDGLDALLDYYEFDPERVTAWASEREFLETASAQAAGTAVDEGYADLGVGYSTSAWLTDVDSVRVLDDDRNFWPFFHPVGVVHEDVATDAVVAALNTMPDAIPDAETMQALNSRAAASGNQQAAADHLQNNDFI
binding [4]: no binding
binding [8]: binds

No constants are given. Whether binding was seen depends on the method and setting. In cells and extracts the contact can be indirect. A yes stands for co-enrichment or nearness to the bait. Other partners may have been found. For some assays here: A no says only that the protein was not detected with the bait.
